The record followed here is article PMC9905489.

No constants are given. Whether binding was seen depends on the method and setting. Binding seen in cells or lysates may run through a third protein. Some entries that bind do so weakly or less than the wild type. For some assays here: Sequences can lack the tags named with a protein.

In experiment [1] the target is T1, AURKA, endogenous (human (endogenous; all cell lines of the paper are human, the line of Fig. 4B is not stated)) (UniProt O14965).
T1 sequence: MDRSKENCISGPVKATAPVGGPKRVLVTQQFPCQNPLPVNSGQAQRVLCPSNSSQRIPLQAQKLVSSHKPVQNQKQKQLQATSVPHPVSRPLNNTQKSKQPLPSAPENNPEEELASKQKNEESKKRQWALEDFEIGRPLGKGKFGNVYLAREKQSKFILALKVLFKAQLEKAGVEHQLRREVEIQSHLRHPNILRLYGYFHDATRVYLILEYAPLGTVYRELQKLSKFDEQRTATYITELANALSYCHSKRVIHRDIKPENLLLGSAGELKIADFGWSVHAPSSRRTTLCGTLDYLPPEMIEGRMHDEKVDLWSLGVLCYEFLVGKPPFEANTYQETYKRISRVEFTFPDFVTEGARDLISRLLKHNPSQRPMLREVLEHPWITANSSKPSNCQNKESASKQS
The experiment in a line: co-IP; endogenous HMMR and AURKA; immunoprecipitation with anti-HMMR or anti-AURKA antibodies, western blot; cell line not stated.

Experiment [2] concerns the target T2, His-labelled AURKA (UniProt O14965).
T2 sequence: T1 sequence
Description: co-IP; Flag-HMMR or its deletion mutants with His-AURKA, co-transfected (HEK-293T stated for the deletion mutants); whole-cell lysates immunoprecipitated with anti-His (for the whole protein also anti-Flag) and blotted with anti-Flag.

B1: Hyaluronan-mediated motility receptor (HMMR), endogenous (protein, UniProt O75330 1-724)
chain: MSFPKAPLKRFNDPSGCAPSPGAYDVKTLEVLKGPVSFQKSQRFKQQKESKQNLNVDKDTTLPASARKVKSSESKESQKNDKDLKILEKEIRVLLQERGAQDRRIQDLETELEKMEARLNAALREKTSLSANNATLEKQLIELTRTNELLKSKFSENGNQKNLRILSLELMKLRNKRETKMRGMMAKQEGMEMKLQVTQRSLEESQGKIAQLEGKLVSIEKEKIDEKSETEKLLEYIEEISCASDQVEKYKLDIAQLEENLKEKNDEILSLKQSLEENIVILSKQVEDLNVKCQLLEKEKEDHVNRNREHNENLNAEMQNLKQKFILEQQEREKLQQKELQIDSLLQQEKELSSSLHQKLCSFQEEMVKEKNLFEEELKQTLDELDKLQQKEEQAERLVKQLEEEAKSRAEELKLLEEKLKGKEAELEKSSAAHTQATLLLQEKYDSMVQSLEDVTAQFESYKALTASEIEDLKLENSSLQEKAAKAGKNAEDVQHQILATESSNQEYVRMLLDLQTKSALKETEIKEITVSFLQKITDLQNQLKQQEEDFRKQLEDEEGRKAEKENTTAELTEEINKWRLLYEELYNKTKPFQLQLDAFEVEKQALLNEHGAAQEQLNKIRDSYAKLLGHQNLKQKIKHVVKLKDENSQLKSEVSKLRCQLAKKKQSETKLQEELNKVLGIKHFDPSKAFHHESKENFALKTPLKEGNTNCYRAPMECQESWK
Regarding B1, the binding entry in experiment [1] is given as “binds”.

B2: Flag-labelled HMMR (protein, UniProt O75330 1-724)
chain: B1 chain
As for B2, the binding result in experiment [2] was “binds”.
